The supplement of paper PMC10849652
This is one part of the list.

The chains behind the UniProt entries cited, without tags or fusion partners. Where a name states a change or a piece, a line headed by the entry shows the natural chain unless it says otherwise.
UniProt Q9Y4C4: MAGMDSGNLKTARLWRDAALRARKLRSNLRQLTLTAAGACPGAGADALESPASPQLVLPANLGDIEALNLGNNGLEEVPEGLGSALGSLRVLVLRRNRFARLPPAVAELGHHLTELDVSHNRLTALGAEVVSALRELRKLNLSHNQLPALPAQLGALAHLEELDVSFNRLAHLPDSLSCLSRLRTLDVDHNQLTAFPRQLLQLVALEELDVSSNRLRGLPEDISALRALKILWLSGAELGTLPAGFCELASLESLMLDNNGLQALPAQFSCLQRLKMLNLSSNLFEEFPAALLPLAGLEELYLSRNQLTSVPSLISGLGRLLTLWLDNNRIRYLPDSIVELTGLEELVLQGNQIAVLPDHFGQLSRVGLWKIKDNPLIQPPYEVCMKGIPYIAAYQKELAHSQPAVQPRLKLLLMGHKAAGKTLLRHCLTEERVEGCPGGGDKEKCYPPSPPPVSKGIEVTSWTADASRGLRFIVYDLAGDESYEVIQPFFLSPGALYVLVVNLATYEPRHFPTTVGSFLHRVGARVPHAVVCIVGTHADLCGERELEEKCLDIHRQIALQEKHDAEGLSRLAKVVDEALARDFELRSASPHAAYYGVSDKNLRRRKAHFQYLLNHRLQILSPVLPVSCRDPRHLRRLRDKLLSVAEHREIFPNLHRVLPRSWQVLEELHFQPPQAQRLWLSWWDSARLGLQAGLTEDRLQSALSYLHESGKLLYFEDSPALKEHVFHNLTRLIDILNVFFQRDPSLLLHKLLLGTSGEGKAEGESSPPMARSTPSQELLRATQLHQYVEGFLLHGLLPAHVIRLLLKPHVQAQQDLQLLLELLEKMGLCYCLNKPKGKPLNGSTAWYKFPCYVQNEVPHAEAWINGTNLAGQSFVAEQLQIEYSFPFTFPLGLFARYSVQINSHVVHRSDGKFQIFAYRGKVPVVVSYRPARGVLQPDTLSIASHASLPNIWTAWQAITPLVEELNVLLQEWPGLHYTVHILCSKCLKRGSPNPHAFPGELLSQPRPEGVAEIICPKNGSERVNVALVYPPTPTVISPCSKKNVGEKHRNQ
UniProt Q7L590: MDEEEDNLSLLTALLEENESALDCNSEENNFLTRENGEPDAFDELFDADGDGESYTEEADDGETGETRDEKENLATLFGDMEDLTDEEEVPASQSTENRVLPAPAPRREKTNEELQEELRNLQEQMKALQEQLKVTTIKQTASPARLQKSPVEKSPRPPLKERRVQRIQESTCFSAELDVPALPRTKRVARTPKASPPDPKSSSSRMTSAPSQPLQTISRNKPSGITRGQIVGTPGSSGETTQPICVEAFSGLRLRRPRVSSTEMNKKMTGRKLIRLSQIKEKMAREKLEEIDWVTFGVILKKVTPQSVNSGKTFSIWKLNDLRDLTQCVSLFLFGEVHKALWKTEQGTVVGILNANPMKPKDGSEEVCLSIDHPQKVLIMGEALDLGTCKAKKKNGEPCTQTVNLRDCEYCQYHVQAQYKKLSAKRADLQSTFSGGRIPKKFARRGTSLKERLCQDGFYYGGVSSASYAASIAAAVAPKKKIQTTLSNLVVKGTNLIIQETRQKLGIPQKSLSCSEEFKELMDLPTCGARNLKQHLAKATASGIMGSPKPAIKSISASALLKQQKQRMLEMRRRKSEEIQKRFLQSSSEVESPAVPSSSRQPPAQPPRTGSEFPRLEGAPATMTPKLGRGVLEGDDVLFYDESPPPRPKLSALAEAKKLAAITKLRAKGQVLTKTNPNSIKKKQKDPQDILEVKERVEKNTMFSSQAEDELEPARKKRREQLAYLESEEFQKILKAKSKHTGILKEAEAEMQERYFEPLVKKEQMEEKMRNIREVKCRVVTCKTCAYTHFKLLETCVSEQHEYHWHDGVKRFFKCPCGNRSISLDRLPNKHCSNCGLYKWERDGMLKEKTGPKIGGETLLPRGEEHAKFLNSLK
UniProt Q9Y3C7: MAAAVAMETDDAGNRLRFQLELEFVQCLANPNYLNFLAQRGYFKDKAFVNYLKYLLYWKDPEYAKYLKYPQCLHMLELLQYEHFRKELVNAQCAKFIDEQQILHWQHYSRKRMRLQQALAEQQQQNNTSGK

Assays:
Experiment in all cases: log2 fold change, soluble protein after heating vs DMSO (PISA); higher = thermal stabilisation; K562 cells, 10 uM, 30 min; active = over 0.2 and 3.5 SD of the protein, either way, in both replicates (recomputed)
saracatinib = compound: CN1CCN(CCOc2cc(OC3CCOCC3)c3c(Nc4c(Cl)ccc5c4OCO5)ncnc3c2)CC1 [saracatinib]
Procedure, shortened: (§1)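 Soluble protein was quantified by TMTpro 16plex LC-MS/MS after channel sums were equalised. It was obtained as the supernatant after 21,000xg for 90 min from pooled aliquots of K562 cells (2×10^6 cells/mL, 10 μM compound, 30 min) heated for 3 min across 48°C-58°C and extracted in PBS with 0.5% NP-40 at 4°C. Thermal stability values are relative to control samples and come from duplicates. They are given as log2 fold changes.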

alvocidib = compound: CN1CC[C@H](c2c(O)cc(O)c3c(=O)cc(-c4ccccc4Cl)oc23)[C@H](O)C1 [alvocidib]
Procedure, shortened: as §1

Tubastatin A = compound: CN1CCc2c(c3ccccc3n2Cc2ccc(C(=O)NO)cc2)C1 [Tubastatin A]
Procedure, shortened: as §1

defactinib = compound: CNC(=O)c1ccc(Nc2ncc(C(F)(F)F)c(NCc3nccnc3N(C)S(C)(=O)=O)n2)cc1 [defactinib]
Procedure, shortened: as §1

[1] = compound: CNc1nc(-c2ccc3c(N)n[nH]c3c2)cc(N2C[C@@H](C(=O)NC3CCCCC3)CC[C@H]2C)n1
Procedure, shortened: as §1

[2] = compound: COC(=O)[C@H](CCSC)NC(=O)C1=C(C=C(C=C1)NC[C@H](CS)N)C2=CC=CC=C2
Procedure, shortened: as §1

[3] = compound: COC1=CC=C(C=C1)CN2C=CC3=C2C=C(C=C3)C(=O)NO
Procedure, shortened: as §1

zotarolimus = compound: CO[C@H]1C[C@@H]2CC[C@@H](C)[C@@](O)(O2)C(=O)C(=O)N2CCCC[C@H]2C(=O)O[C@H]([C@H](C)C[C@@H]2CC[C@H](n3cnnn3)[C@H](OC)C2)CC(=O)[C@H](C)/C=C(\C)[C@@H](O)[C@@H](OC)C(=O)[C@H](C)C[C@H](C)/C=C/C=C/C=C/1C [zotarolimus]
Procedure, shortened: as §1

idasanutlin = compound: COc1cc(C(=O)O)ccc1NC(=O)[C@@H]1N[C@@H](CC(C)(C)C)[C@](C#N)(c2ccc(Cl)cc2F)[C@H]1c1cccc(Cl)c1F [idasanutlin]
Procedure, shortened: as §1

alisertib = compound: COc1cc(Nc2ncc3c(n2)-c2ccc(Cl)cc2C(c2c(F)cccc2OC)=NC3)ccc1C(=O)O [alisertib]
Procedure, shortened: as §1

[4] = compound: COc1cccc2cc(-c3nc([C@H]4CC[C@H](C(=O)O)CC4)n4ncnc(N)c34)[nH]c12
Procedure, shortened: as §1

pictilisib = compound: CS(=O)(=O)N1CCN(Cc2cc3nc(-c4cccc5[nH]ncc45)nc(N4CCOCC4)c3s2)CC1 [pictilisib]
Procedure, shortened: as §1

sotrastaurin = compound: CN1CCN(c2nc(C3=C(c4c[nH]c5ccccc45)C(=O)NC3=O)c3ccccc3n2)CC1 [sotrastaurin]
Procedure, shortened: as §1

[5] = compound: CNC(=O)C1=CC=CC=C1NC2=NC(=NC=C2Cl)NC3=C(C=C(C=C3)N4CCOCC4)OC
Procedure, shortened: as §1

rucaparib = compound: CNCc1ccc(-c2[nH]c3cc(F)cc4c3c2CCNC4=O)cc1 [rucaparib]
Procedure, shortened: as §1

encorafenib = compound: COC(=O)N[C@@H](C)CNc1nccc(-c2cn(C(C)C)nc2-c2cc(Cl)cc(NS(C)(=O)=O)c2F)n1 [encorafenib]
Procedure, shortened: as §1

filanesib = compound: CON(C)C(=O)N1N=C(c2cc(F)ccc2F)S[C@@]1(CCCN)c1ccccc1 [filanesib]
Procedure, shortened: as §1

[6] = compound: COc1cc2nc(-c3cc(F)ccc3O)nc(N[C@@H]3CNC[C@H]3C(C)(C)O)c2cc1OC
Procedure, shortened: as §1

gefitinib = compound: COc1cc2ncnc(Nc3ccc(F)c(Cl)c3)c2cc1OCCCN1CCOCC1 [gefitinib]
Procedure, shortened: as §1

lapatinib = compound: CS(=O)(=O)CCNCc1ccc(-c2ccc3ncnc(Nc4ccc(OCc5cccc(F)c5)c(Cl)c4)c3c2)o1 [lapatinib]
Procedure, shortened: as §1

Measured: log2 fold change

MFHAS1 (UniProt Q9Y4C4)
inactive: saracatinib -0.012 | alvocidib -0.014 | Tubastatin A -0.04 | defactinib -0.012 | [1] 0.115 | [2] -0.268 | [3] 0.323 | zotarolimus -0.017 | idasanutlin -0.115 | alisertib -0.051 | [4] 0.023 | pictilisib 0.115

MCM10 (UniProt Q7L590)
inactive: sotrastaurin -0.09 | Tubastatin A -0.017 | [5] 0.014 | defactinib 0.018 | rucaparib -0.021 | encorafenib -0.049 | [2] -0.007 | [3] 0.303 | filanesib -0.192 | alisertib -0.097 | [6] -0.103 | gefitinib -0.014 | [4] 0.1 | lapatinib 0.204 | pictilisib -0.118

MED31 (UniProt Q9Y3C7)
inactive: defactinib -0.098 | rucaparib 0.184 | encorafenib -0.022 | [2] -0.075 | [3] -0.114 | alisertib -0.035 | gefitinib 0.081 | [4] -0.036
